PubChem BioAssay AID1487 (National Center for Advancing Translational Sciences (NCATS), 2009)
Values joined by “and” are separate entries in the source; they are usually repeats but may differ in a detail not shown here. Equal values may be shown once. Some of the results follow. Further columns of the screen follow, without active or inactive calls. Compounds called inactive in the main read-out are mostly missing here. The note in brackets gives the kind of curve behind each potency; many fits are weak.

Assay: qHTS Assay for Modulators of Lamin A Splicing
Details: HeLa LMNA splicing GFP/RFP minigene ratio, 48 h
How it was run: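 S3 HeLa stable clones carrying a lamin A-EGFP splicing minigene plus DsRed2 were seeded at 600 cells/well in Opti-MEM with 2% FBS, pin-dosed and incubated 48 h at 37°C. Acumen cytometry (488 nm) gave the GFP/RFP total-intensity ratio.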

[1] = measured here: GFP splicing reporter channel
[2] = measured here: RFP viability control channel

Row | SMILES | AC50 [1] | AC50 [2]
1 | COc1cc(CCC(=O)Nc2ccc(Cl)c(C(F)(F)F)c2)cc(OC)c1OC | 2.51 µM [rising, partial curve] | 20 µM [rising, partial curve]
2 | Cc1cc(C)c(S(=O)(=O)N2CCOC2CNC(=O)C(=O)NCc2cccnc2)c(C)c1 (centres undefined) |  | 12.6 µM [rising, single point]
3 | CCC(C)(C)NC(=O)CCCSc1nc2ccccc2s1 | 1 µM [falling, partial curve] | 
4 | COCc1cc(=O)[nH]c(Sc2c(-c3ccccc3)c3ccc(Cl)cc3[nH]c2=O)n1 |  | 6.31 µM [rising, single point]
5 | C=COCCNC(=O)Nc1ccc(Cl)c(Cl)c1 |  | 14.1 µM [rising, partial curve]
6 | O=C(c1ccc(COc2ccc(Cl)cc2)o1)N1N=C(C(F)F)CC1(O)C(F)F (centres undefined) | 11.2 µM [rising, partial curve] | 22.4 µM [rising, single point]
7 | CC(C)C(NC(=O)C1CCC(C(C)(C)C)CC1)C(=O)NCc1cccnc1 (centres undefined) |  | 20 µM [rising, single point]
8 | Cc1ccc(NC(=O)C(=O)NCC(c2cccnc2)N2CCOCC2)cc1C (centres undefined) | 35.5 µM [falling, single point] | 35.5 µM [falling, single point]
9 | CCOC(=O)N1CCN(CCC(=O)Nc2ccc(C)c(Br)c2)CC1 | 35.5 µM [rising, single point] | 31.6 µM [rising, single point]
10 | Brc1ccc(CN2C3=NCCCN3c3ccccc32)cc1 | 8.91 µM [rising, partial curve, poor fit] | 10 µM [rising, partial curve, poor fit]
11 | O=C(Nc1cc(Sc2nc3ccccc3s2)cc([N+](=O)[O-])c1)c1cccc(F)c1F |  | 35.5 µM [rising, single point]
12 | CCc1ccccc1N1C(=O)C2C3CC(=O)C(c4ccccc43)C2C1=O (centres undefined) | 0.0398 µM [rising, full curve] | 0.398 µM [rising, partial curve]
13 | O=C(Cc1coc2cc3c(cc12)CCC3)NC1CCCCCCC1 |  | 22.4 µM [rising, partial curve]
14 | COc1cc(/C=C/C(=O)c2ccc(NS(=O)(=O)c3ccc(C)cc3)cc2)cc(OC)c1O | 22.4 µM [falling, single point] | 14.1 µM [falling, single point]
15 | COc1ccc2nc(NC(=O)CSc3nc(SC)ns3)sc2c1 |  | 25.1 µM [rising, single point]
16 | COC(=O)CCCNc1ncccc1[N+](=O)[O-] | 35.5 µM [rising, single point] | 17.8 µM [rising, partial curve]
17 | COc1ccc(OC)c(NC(=S)N2CCC(C(O)(c3ccccc3)c3ccccc3)CC2)c1 |  | 35.5 µM [rising, single point]
18 | COc1cc2oc3ccccc3c2cc1N(CC(=O)N1CCCCC1)S(=O)(=O)c1ccc(C)cc1 | 3.16 µM [rising, single point] | 

Row | SMILES | AC50 [1] | AC50 [2]
19 | C(=C\c1ccccc1)/C=N/Nc1nc2ccccc2[nH]1 |  | 6.31 µM [rising, full curve, poor fit]
20 | Cc1ccc(CNC(=O)c2ccc(COc3ccccc3)cc2)cc1 | 12.6 µM [rising, single point] | 11.2 µM [rising, single point]
21 | CN(CCn1ccnc1)Cc1cn(-c2ccccc2)nc1-c1ccc2c(c1)OCO2 | 0.178 µM [falling, full curve, poor fit] | 
22 | O=C(NNS(=O)(=O)c1cccc(Cl)c1)c1cc(-c2ccc(F)cc2)nc2ccccc12 | 0.794 µM [falling, full curve, poor fit] | 
23 | Cc1nc2c(cnn2-c2ccccc2Cl)c(=O)n1-c1ccc(C(C)C)cc1 | 35.5 µM [rising, single point] | 25.1 µM [rising, single point]
24 | O=C(Nc1ccc2c(c1)oc1ccccc12)c1ccncc1 |  | 10 µM [rising, single point]
25 | CCCCC(=O)c1c(O)c2ccccc2oc1=O |  | 14.1 µM [rising, single point]
26 | O=C(NC(=S)N1CCN(c2nc(-c3ccccc3)cs2)CC1)c1cccnc1 | 17.8 µM [rising, single point] | 
27 | O=C(CCCc1nc(-c2ccccc2Cl)no1)NCc1cccnc1 |  | 31.6 µM [rising, single point]
28 | CCOC(=O)/C(C#N)=C/c1cccc([N+](=O)[O-])c1 | 3.98 µM [rising, full curve, poor fit] | 
29 | Cc1noc(C)c1COC(=O)c1cccc(S(=O)(=O)N2CCCCCC2)c1 |  | 11.2 µM [rising, partial curve]
30 | Cc1cc(C)c(C(=O)CSc2nc(C)cc(C)c2C(N)=O)c(C)c1 | 35.5 µM [rising, single point] | 35.5 µM [rising, single point]
31 | CCNc1ncc2nc(-c3ccccc3)c(=O)n(C[C@H]3CCCO3)c2n1 | 12.6 µM [falling, single point] | 
32 | COc1cccc(C2N(c3ccccc3)CCN2c2ccccc2)c1OC | 0.0224 µM [rising, full curve, poor fit] | 
33 | O=C1c2ccccc2S(=O)(=O)N1CC1CC(c2ccc(Cl)cc2)=NO1 (centres undefined) | 11.2 µM [rising, partial curve] | 10 µM [rising, partial curve]
34 | Nc1ccn([C@@H]2O[C@H](CO)[C@@H](O)[C@@H]2O)c(=O)n1 | 0.0316 µM [falling, full curve] | 112 nM [rising, full curve, poor fit] and 1 µM [rising, full curve]
35 | COc1ccc(N2CCN(c3nc4ccccc4n3CC(=O)c3ccccc3)CC2)cc1 | 8.91 µM [rising, partial curve, poor fit] | 11.2 µM [rising, partial curve]
